Results reported in PubChem BioAssay AID1671190 (National Center for Advancing Translational Sciences (NCATS), 2021).
Several values for one entry are separate records, joined by “and”; a condition that tells them apart may be missing. Identical values can stand only once. The campaign covered roughly 580,000 compounds. About 6,100 (1.1%) were called active. The shares of active, inactive and inconclusive entries below differ from those in the screen. The call rests on the fitted dose curve; in most records, active means well fitted inhibition curve with a large enough effect; inconclusive means small, poorly fitted or top-dose-only effect, or another doubt; inactive means no such curve, though single readings can be large or run the other way. A potency beside an inconclusive call is a rough fit, not a confirmed value.

Chains of the proteins cited; added tags and fusions are not shown. Lines headed by an entry give the natural chain unless they say otherwise; changes in a name come on top.
UniProt P18054: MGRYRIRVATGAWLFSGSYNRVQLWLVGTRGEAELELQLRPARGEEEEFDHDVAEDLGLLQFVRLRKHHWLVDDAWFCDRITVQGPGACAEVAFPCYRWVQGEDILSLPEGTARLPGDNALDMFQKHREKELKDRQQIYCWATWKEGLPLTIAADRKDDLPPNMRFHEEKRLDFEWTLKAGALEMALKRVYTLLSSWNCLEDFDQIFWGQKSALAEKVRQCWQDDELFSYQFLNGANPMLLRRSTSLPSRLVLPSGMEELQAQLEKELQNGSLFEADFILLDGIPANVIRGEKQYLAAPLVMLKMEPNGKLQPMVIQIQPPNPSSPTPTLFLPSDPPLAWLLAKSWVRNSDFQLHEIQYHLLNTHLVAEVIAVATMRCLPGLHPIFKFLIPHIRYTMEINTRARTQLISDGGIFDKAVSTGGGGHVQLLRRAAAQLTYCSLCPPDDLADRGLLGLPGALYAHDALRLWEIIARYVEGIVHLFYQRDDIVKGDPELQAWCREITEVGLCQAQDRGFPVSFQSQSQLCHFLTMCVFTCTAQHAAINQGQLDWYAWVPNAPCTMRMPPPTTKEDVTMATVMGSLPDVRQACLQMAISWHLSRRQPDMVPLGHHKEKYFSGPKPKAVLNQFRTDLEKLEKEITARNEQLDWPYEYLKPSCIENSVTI

Biological target: Polyunsaturated fatty acid lipoxygenase ALOX12 (Homo sapiens) (UniProt P18054)
Test: Primary qHTS assay for inhibitors of human arachidonate 12S-lipoxygenase (ALOX12): Round 2
Conditions: purified 12hLO, xylenol orange hydroperoxide absorbance; activity change, negative = inhibition: at 108 µM (top of the series) unless noted
Outline: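 Purified human 12hLO at 150 nM in 25 mM Hepes, 0.01% Triton X-100, pH 7.0, preincubated 15 min at room temperature with compound. Reaction started with 40 uM arachidonic acid, 30 min at room temperature. Hydroperoxide measured by Fe-xylenol orange, 573/405 nm absorbance ratio.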
On the % scale 0 is the no-effect control and ±100 the full control effect; potency means the concentration at half of the fitted maximal effect.

SMILES | Potency | activity change, negative = inhibition
COC(=O)CN1C(=O)[C@H]2[C@@H](c3ccc(C)o3)N3C(=O)CN(Cc4ccc(-c5ccccc5)cc4)C(=O)[C@@]3(C)[C@H]2C1=O | inconclusive: 25.1 µM [inhibitor, partial curve, poor fit] | 
CC(C)(C)c1ccc(C(=O)Nc2ccc(Oc3ccc(Cl)cc3Cl)cc2)cc1 |  | inactive: -21.7%
C/C(=N\NC(N)=S)c1cc(C(C)(C)C)cc2c1CCC2(C)C | inconclusive: 39.8 µM [inhibitor, partial curve, poor fit] and active: 31.6 µM | 
N#C/C(=C/c1cccc(O)c1)c1ccc(C(F)(F)F)cn1 | inconclusive: 20 µM [inhibitor, full curve, poor fit] | 
O=C(NCc1ccccc1Cl)c1ccc(CS(=O)(=O)c2ccc(Br)cc2)o1 | inconclusive: 56.2 µM [inhibitor, partial curve, poor fit] | 
C/C(=N\N)c1c(-c2ccccc2)c2cc(C)ccc2[nH]c1=O |  | inactive: 65.1%
CCc1c(-c2n[nH]c(=S)n2Cc2ccccc2)csc1C | inconclusive: 44.7 µM [inhibitor, partial curve, poor fit] | 
NS(=O)(=O)c1cc2c(cc1Cl)NC(CSCc1ccccc1)=NS2(=O)=O | inconclusive: 44.7 µM [inhibitor, partial curve, poor fit] | 
CCC(=O)Nc1sc2c(c1C#N)CC(C)(C)NC2(C)C | inconclusive: 20 µM [inhibitor, partial curve, poor fit] | 
N#Cc1cccc2cnccc12 | inconclusive: 31.6 µM [inhibitor, partial curve, poor fit] | 
CCC1CCCCN1C(=O)c1c[nH]c2ccc(S(=O)(=O)N(C)c3ccc(Cl)cc3)cc2c1=O (configuration not stated) | inconclusive: 39.8 µM [inhibitor, partial curve] | 
O=C(N/N=C/c1ccc(O)cc1)c1ccncc1 |  | inactive: 11.8%
Cc1cc(C(c2ccc(C)o2)c2ccc(C)o2)c(O)c([N+](=O)[O-])c1 | active: 35.5 µM | 
O=C(/C=C\NCC(=O)c1ccccc1)c1ccc2ccccc2c1 | active: 35.5 µM | 
Cc1ccc(C(=O)NNc2nc3ccccc3nc2C(F)(F)F)cc1 |  | inactive: 102%
Cc1c(CNC2CCCCC2)c(C(=O)O)c(C)n1Cc1ccc(Cl)cc1 | inconclusive: 50.1 µM [inhibitor, partial curve, poor fit] | 
Clc1ccc(-n2ncc3c(NC4CCCC4)ncnc32)cc1 | inconclusive: 89.1 µM [inhibitor, partial curve, poor fit] | 
CCN1CCN(c2nc3ccccc3nc2C(C#N)S(=O)(=O)c2ccc(C)cc2)CC1 (configuration not stated) | inconclusive: 44.7 µM [inhibitor, partial curve] | 
COc1ccc(-c2nnc3n(CCc4ccccc4)c(=O)c4ccccc4n23)cc1 | inconclusive: 70.8 µM [inhibitor, partial curve, poor fit] | 
Cc1cc2n(CC(O)COc3ccc(-c4ccccc4)cc3)c(=O)c3ccccc3n2n1 (configuration not stated) |  | inactive: 9.62%
O=c1[nH]c(-c2cccnc2)nc2ccccc12 |  | inactive: -22.1%
O=C(CN1C(=O)NC2(CCCC2)C1=O)OCC(=O)c1cccc(Cl)c1 | inconclusive: 100 µM [inhibitor, single point] | 
COc1ccc(OC)c(CNc2ncc(-c3cccc([N+](=O)[O-])c3)n2C)c1 |  | inactive: -25.8%

SMILES | Potency | activity change, negative = inhibition
O=C(/C=C/c1cccc([N+](=O)[O-])c1)NCc1cccnc1 | inconclusive: 100 µM [inhibitor, single point] | 
COc1ccc(N2CCN(C(=O)c3cccn3-c3nnc(N4CCCC4)s3)CC2)cc1 | inconclusive: 112 µM [inhibitor, partial curve, poor fit] | 
Oc1c(CN2CCCC(C(F)(F)F)C2)cc(Cl)c2ccccc12 (configuration not stated) | active: 15.8 µM | 
O=C(CN1CCc2ccccc2C1)c1cccs1 | inconclusive: 0.447 µM [inhibitor, full curve, poor fit] | 
COCOCCn1cc(CN2CCS(=O)(=O)N(Cc3ccc(-c4ccc(F)cc4)cc3)C(C(C)C)C2=O)nn1 (configuration not stated) | inconclusive: 31.6 µM [inhibitor, single point] | 
FC(F)C(F)(F)Oc1cccc(Nc2nccn3c(-c4cc(C(F)(F)F)cc(C(F)(F)F)c4)cnc23)c1 |  | inactive: 12.4%
CCOc1ccc(OCCNCc2ccc(OC(C)C(=O)N(C)C)c(OCC)c2)cc1 (configuration not stated) | inconclusive: 0.355 µM [inhibitor, full curve, poor fit] | 
CCN(CC(=O)NCc1ccc(F)cc1)C(=O)c1ccc2c(c1)nnn2CC | inconclusive: 89.1 µM [inhibitor, partial curve, poor fit] | 
CC(=O)Oc1ccc(Cn2c(C)c(C(=O)NCCC#N)sc2=O)cc1 |  | inactive: 19.2%
CC1=CC2C(C(O)CC3(C)C2CC(C)C32OCOC23COCO3)C2(C)C/C(=C\O)C(=O)C=C12 (configuration not stated) | inconclusive: 89.1 µM [inhibitor, partial curve, poor fit] | 
Cc1cc(OC(C)C(=O)Nc2ccc3nsnc3c2)ccc1Cl (configuration not stated) | inconclusive: 44.7 µM [inhibitor, partial curve, poor fit] | 
O=S(=O)(c1ccc(F)cc1)c1nc(-c2ccco2)oc1Nc1ccc(F)cc1 | inconclusive: 50.1 µM [inhibitor, partial curve, poor fit] | 
CC(C)Oc1ccccc1CN1C[C@@H](CO)[C@H](c2ccncc2)C1 |  | inactive: 39.1%
O=C(NCCCN1CCCC1=O)c1csc(N2CCN(c3ccccc3F)CC2)n1 |  | inactive: -8.23%
O=C(NCCC1=CCCCC1)c1ccc(Cl)c(S(=O)(=O)N2CCCCC2)c1 | inconclusive: 112 µM [inhibitor, single point] | 
CN(C)NC1CCS(=O)(=O)C1 (configuration not stated) | inconclusive: 8.91 µM [inhibitor, full curve, poor fit] | 
CCOc1ccc(OCC)c(-c2c(=O)n(OCc3ccccc3Br)c3ccccc3[n+]2[O-])c1 | inconclusive: 11.2 µM [inhibitor, full curve, poor fit] | 
CO/N=C/c1ccc(N2CCN(C(=O)c3ccc(C)cc3)CC2)c([N+](=O)[O-])c1 |  | inactive: -6.38%
O=C(O)CCCc1ccncc1 | inconclusive: 50.1 µM [inhibitor, single point] | 
Cc1ccc(/C=N/n2c(-c3cccc(Cl)c3)n[nH]c2=S)o1 | inconclusive: 112 µM [inhibitor, partial curve, poor fit] | 
Cc1cccc(NC(=S)N2CCN(S(=O)(=O)c3cccc(F)c3)CC2)c1 |  | inactive: 13%
C/C(=N\N1C(=O)c2ccccc2NC1c1ccccc1)c1ccccc1O (configuration not stated) |  | inactive: 1.64%
CC(C)NC(=O)c1cc(-c2ccc(Cl)nc2)nc2c1cnn2C | inconclusive: 7.08 µM [inhibitor, full curve, poor fit] | 

SMILES | Potency | activity change, negative = inhibition
CCOc1ccccc1N1CCN(CC(=O)Nc2c(C)cc(C)cc2Cl)CC1 | inconclusive: 4.47 µM [inhibitor, partial curve, poor fit] | 
O=C(CCCc1c[nH]c2ccccc12)NCC(=O)N1CCCCCCNC(=O)CC1c1ccccc1 (configuration not stated) |  | inactive: 0.882%
O=C(c1cc(=O)c2ccccc2o1)N(Cc1cccs1)c1ccccn1 | inconclusive: 35.5 µM [inhibitor, partial curve, poor fit] | 
CCN(CC)C(=O)c1ccc2c(c1)N(Cc1ccc(C(F)(F)F)cc1)C(=O)c1ccccc1S2 | inconclusive: 1.26 µM [inhibitor, full curve, poor fit] | 
O=c1ccc(-c2ccccc2)nn1Cc1ccc(Cl)cc1 | inconclusive: 112 µM [inhibitor, single point] | 
O=C(CSc1nc2c(c(=O)[nH]1)CCC2)Nc1oncc1-c1ccccc1 | inconclusive: 39.8 µM [inhibitor, partial curve] | 
COC(=O)c1ccc(C(=S)N2CCCCC2)cc1 |  | inactive: 58.3%
CCOC(=O)c1[nH]c(C)c(C(=O)N2CCN(c3ccc(F)cc3)CC2)c1C | inconclusive: 79.4 µM [inhibitor, partial curve, poor fit] | 
COc1ccc(Cc2nc3nccc(-c4ccc(OC)c(OC)c4)n3n2)cc1 |  | inactive: -15.5%
CCN(c1ccc(NC(=O)COC(=O)/C=C/c2cccs2)cc1)C(C)C |  | inactive: -3.3%
COc1ccc(Cl)cc1C=CC=NNS(=O)(=O)c1ccc(C)cc1 | inconclusive: 56.2 µM [inhibitor, partial curve, poor fit] | 
CCNC(=O)c1sc2cc(C)ccc2c1Cl | inconclusive: 39.8 µM [inhibitor, partial curve, poor fit] | 
O=C(CSc1nnc(COc2ccc(Br)cc2)o1)N1CCOCC1 |  | inactive: -8.91%
CC(OC(=O)c1nn(C)c(=O)c2ccccc12)C(N)=O (configuration not stated) |  | inactive: 31.6%
COc1ccc(C(=O)Nc2ccccc2C(=O)NCc2cccnc2)cc1 |  | inactive: -5.37%
O=C(COc1cccc2ccccc12)Nc1cc(Cl)ccc1C(=O)O | inconclusive: 56.2 µM [inhibitor, partial curve, poor fit] | 
O=S1(=O)CC(O)C(O)CS1 (configuration not stated) | inconclusive: 3.55 µM [inhibitor, full curve] | 
CCCCOc1cccc(C(=O)NC(=S)Nc2ccc(Cl)c(C(=O)O)c2)c1 | active: 5.62 µM | 
CC(Oc1ccc(Cl)cc1Cl)C(=O)N1CCN(C(=O)c2ccco2)CC1 (configuration not stated) | inconclusive: 89.1 µM [inhibitor, partial curve, poor fit] | 
COC(=O)c1ccc(Sc2ccc(F)cc2)c(N)c1 | inconclusive: 14.1 µM [inhibitor, full curve, poor fit] | 
Cc1cc2c(-c3cccc(O)c3)nc(-c3c(C)noc3C)cc2[nH]1 | inconclusive: 50.1 µM [inhibitor, partial curve, poor fit] | 
